Data published in paper PMC5517149.
No constants are given. Whether binding was seen depends on the method and setting. Binding seen in cells or lysates may run through a third protein. For some assays here: A result given as binding can be weak or reduced; the word gives no strength.

Chains of the proteins cited; added tags and fusions are not shown. Lines headed by an entry give the natural chain unless they say otherwise; changes in a name come on top. A line that says so, or that is headed by a name, gives the form on record, which may keep a tag or linker.
UniProt O95197: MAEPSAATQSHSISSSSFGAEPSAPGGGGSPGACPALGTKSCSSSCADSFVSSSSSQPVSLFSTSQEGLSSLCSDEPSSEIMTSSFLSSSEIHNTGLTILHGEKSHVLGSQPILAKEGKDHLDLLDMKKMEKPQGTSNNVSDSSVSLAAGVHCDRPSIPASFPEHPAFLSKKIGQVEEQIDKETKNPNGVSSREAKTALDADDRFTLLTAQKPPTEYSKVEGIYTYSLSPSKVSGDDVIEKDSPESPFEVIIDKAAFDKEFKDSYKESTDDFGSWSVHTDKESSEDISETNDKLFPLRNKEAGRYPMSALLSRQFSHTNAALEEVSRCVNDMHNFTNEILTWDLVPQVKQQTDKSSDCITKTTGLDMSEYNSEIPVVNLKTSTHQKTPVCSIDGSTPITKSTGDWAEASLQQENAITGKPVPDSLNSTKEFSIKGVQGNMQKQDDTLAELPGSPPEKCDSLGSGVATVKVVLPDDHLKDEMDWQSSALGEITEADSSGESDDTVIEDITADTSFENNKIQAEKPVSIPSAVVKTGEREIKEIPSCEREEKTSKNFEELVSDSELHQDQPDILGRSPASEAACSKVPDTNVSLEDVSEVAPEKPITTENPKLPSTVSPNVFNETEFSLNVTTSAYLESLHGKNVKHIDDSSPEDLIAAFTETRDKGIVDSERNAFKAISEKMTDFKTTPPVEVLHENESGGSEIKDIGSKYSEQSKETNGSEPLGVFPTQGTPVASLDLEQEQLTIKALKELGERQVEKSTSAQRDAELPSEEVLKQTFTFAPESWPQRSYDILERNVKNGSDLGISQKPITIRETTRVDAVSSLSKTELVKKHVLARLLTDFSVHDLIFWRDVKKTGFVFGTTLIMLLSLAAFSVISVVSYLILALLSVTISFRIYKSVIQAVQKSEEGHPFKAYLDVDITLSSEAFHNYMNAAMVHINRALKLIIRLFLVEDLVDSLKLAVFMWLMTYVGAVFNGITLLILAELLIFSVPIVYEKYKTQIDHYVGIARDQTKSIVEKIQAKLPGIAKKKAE
HA tagged RTN3S (O95197-3, form named): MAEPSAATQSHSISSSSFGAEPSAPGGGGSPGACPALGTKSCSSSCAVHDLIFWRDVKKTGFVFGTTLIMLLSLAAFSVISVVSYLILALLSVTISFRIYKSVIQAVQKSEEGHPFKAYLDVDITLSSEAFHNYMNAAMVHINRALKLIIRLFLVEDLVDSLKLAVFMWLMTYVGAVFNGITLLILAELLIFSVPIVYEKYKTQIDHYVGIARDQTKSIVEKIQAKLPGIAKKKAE
UniProt Q9BXW4: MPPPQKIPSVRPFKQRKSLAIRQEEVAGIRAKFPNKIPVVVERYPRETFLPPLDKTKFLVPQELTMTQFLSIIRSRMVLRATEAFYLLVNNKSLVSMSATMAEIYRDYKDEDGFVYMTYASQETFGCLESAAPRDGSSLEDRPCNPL
UniProt Q16799: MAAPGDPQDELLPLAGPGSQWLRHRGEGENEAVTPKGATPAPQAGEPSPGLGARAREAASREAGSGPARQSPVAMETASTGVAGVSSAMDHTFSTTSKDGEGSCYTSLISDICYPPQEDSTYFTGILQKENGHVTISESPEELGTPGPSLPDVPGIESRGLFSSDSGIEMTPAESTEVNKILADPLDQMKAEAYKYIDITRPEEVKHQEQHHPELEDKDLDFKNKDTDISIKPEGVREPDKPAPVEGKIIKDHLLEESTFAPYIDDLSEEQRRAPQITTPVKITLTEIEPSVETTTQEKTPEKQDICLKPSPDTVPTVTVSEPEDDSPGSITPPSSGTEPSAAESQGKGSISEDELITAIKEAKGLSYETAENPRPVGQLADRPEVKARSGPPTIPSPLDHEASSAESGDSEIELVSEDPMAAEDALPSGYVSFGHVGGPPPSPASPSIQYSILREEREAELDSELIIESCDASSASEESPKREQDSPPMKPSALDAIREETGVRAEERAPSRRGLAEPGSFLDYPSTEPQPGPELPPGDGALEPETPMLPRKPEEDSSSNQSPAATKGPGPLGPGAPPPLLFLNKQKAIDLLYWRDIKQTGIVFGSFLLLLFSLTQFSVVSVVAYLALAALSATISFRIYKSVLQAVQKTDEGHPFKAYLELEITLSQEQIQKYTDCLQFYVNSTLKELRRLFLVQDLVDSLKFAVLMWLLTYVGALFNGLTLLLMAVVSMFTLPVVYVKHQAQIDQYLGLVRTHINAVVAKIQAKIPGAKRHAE
RTN1S (co-overexpressed in HEK293T) (Q16799-3, form named): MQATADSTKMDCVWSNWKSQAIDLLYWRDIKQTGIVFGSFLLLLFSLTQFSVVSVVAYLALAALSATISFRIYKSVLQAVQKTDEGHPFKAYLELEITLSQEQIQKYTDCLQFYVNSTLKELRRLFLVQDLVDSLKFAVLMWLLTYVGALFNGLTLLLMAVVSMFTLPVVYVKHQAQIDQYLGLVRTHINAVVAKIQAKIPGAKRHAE
UniProt Q9NQC3: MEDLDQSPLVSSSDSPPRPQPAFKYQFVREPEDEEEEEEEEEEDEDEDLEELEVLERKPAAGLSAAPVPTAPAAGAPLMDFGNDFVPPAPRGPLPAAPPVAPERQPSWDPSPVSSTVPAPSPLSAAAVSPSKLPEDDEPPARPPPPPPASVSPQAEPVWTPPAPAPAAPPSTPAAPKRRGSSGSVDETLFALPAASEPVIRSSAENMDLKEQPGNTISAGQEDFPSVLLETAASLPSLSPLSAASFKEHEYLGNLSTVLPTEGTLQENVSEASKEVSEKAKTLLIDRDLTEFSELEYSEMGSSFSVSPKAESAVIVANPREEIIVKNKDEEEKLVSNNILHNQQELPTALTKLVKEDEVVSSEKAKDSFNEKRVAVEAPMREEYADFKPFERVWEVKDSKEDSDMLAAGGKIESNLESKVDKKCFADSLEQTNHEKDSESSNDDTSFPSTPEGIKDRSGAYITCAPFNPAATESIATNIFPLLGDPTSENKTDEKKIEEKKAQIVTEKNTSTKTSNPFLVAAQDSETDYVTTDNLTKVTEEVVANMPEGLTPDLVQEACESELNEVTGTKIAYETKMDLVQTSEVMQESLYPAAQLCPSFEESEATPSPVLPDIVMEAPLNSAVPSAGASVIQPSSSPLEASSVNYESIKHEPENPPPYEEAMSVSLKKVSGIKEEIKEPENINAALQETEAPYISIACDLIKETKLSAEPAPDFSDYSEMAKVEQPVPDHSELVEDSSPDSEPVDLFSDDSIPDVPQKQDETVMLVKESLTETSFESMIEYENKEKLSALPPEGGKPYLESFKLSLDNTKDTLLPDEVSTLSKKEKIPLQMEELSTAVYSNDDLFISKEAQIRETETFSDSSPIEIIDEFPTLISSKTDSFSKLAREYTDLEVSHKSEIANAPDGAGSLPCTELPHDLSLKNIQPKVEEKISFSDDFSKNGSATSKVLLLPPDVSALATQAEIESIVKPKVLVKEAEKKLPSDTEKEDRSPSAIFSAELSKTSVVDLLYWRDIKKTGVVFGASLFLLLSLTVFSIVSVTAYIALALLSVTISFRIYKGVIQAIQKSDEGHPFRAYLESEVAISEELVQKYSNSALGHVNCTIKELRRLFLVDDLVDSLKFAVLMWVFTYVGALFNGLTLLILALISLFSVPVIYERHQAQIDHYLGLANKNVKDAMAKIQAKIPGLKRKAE
RTN4S (co-overexpressed in HEK293T) (Q9NQC3-3, form named): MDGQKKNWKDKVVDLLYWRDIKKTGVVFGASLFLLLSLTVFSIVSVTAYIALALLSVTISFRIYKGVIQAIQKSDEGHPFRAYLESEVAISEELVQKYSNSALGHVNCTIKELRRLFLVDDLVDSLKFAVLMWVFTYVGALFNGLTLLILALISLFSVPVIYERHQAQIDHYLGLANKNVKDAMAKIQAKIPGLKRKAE
UniProt Q9H6L5: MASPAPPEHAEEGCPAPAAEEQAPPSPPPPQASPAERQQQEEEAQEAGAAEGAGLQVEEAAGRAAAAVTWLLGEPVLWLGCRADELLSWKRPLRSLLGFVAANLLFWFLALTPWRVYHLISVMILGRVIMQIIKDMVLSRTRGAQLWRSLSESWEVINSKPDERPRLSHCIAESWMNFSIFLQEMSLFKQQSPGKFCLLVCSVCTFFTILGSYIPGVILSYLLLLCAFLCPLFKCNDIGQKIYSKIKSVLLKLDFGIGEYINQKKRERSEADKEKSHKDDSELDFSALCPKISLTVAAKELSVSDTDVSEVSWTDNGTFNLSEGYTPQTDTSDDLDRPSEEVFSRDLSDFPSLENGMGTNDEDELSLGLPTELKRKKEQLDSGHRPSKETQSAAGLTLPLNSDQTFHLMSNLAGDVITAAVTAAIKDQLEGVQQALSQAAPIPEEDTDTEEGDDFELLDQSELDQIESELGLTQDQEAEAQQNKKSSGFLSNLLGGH
UniProt O95166: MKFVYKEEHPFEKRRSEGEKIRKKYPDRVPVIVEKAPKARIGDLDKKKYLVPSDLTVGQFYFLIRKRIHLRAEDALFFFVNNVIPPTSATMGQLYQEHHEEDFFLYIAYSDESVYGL
UniProt Q86VR2: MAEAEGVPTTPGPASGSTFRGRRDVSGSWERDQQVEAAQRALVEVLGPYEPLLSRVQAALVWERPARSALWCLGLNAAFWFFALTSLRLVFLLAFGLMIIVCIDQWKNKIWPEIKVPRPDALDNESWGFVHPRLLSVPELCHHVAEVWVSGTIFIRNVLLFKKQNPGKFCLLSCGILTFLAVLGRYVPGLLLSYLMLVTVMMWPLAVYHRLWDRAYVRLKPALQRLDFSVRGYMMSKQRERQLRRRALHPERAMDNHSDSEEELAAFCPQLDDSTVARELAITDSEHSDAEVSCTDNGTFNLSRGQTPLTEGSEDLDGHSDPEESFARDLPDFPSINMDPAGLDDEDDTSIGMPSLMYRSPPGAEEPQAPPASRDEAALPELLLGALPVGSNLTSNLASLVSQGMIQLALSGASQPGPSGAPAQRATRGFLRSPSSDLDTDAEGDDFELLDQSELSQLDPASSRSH

T1: RTN2L (co-overexpressed in HEK293T) (human) (UniProt O75298)
T1 sequence: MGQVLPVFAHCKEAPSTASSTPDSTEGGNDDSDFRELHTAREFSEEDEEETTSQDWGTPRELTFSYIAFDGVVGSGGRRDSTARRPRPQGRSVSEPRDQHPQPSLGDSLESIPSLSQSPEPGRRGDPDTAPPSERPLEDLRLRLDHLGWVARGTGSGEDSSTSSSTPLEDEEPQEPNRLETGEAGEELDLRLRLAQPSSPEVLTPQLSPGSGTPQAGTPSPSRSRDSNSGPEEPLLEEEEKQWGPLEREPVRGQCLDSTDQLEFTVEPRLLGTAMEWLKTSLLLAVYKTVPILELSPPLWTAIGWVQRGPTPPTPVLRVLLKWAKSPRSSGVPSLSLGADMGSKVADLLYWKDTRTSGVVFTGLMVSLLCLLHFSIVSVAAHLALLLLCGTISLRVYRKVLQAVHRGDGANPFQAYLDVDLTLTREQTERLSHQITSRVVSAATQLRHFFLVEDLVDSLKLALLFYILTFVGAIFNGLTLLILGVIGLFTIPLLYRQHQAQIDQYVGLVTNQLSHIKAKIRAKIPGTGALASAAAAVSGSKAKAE


Experiments:
[1] = target: RTN3L (co-overexpressed in HEK293T) (human) (UniProt O95197); assay: co-IP; proteins co-overexpressed in HEK293T for 24 hr; IP with anti-HA-agarose (overnight) or GFP-TRAP beads (2 hr) at 4°C; 50 mM HEPES pH 7.5, 150 mM NaCl, 1% Triton X-100, 10% glycerol
[2] = target: FLAG-HA-RTN3L (human) (UniProt O95197); assay: co-IP; anti-HA-agarose IP of FLAG-HA-RTN isoforms from U2OS TRex stable lines (doxycycline 1 µg/ml 24 hr, bafilomycin A1 200 ng/ml 2 hr); 50 mM Tris/HCl pH 8, 120 mM NaCl, 1% NP40; overnight at 4°C; blot for endogenous GABARAP and GABARAP-L1
[3] = target: GST-LC3C (UniProt Q9BXW4); assay: pull-down; GST fusions on Glutathione Sepharose 4B beads incubated with lysates of transfected HEK293T cells overnight at 4°C; 50 mM HEPES pH 7.5, 150 mM NaCl, 1% Triton X-100, 10% glycerol; blot for the HA or FLAG tag; only the target purified
[4] = target: RTN1L (co-overexpressed in HEK293T) (human) (UniProt Q16799); assay: co-IP; proteins co-overexpressed in HEK293T for 24 hr; IP with anti-HA-agarose (overnight) or GFP-TRAP beads (2 hr) at 4°C; 50 mM HEPES pH 7.5, 150 mM NaCl, 1% Triton X-100, 10% glycerol
[5] = target: T1, RTN2L (co-overexpressed in HEK293T) (human); assay: as above
[6] = target: RTN4L (co-overexpressed in HEK293T) (human) (UniProt Q9NQC3); assay: as above
[7] = target: FAM134B (co-overexpressed in HEK293T) (human) (UniProt Q9H6L5); assay: as above
[8] = target: GST-LC3C (UniProt Q9BXW4); assay: pull-down; GST fusions on Glutathione Sepharose 4B beads incubated with A549 cell lysate (the methods name SH-SY5Y) overnight at 4°C; blot for endogenous RTN3; only the target purified

Molecule | binding [1] | other results
GABARAP (endogenous) (from UniProt O95166 1-117) |  | binding [2]: binds
HA tagged RTN2L (from UniProt O75298-1 1-545) |  | binding [3]: no binding
HA tagged RTN3S (from UniProt O95197-3 1-236) |  | binding [3]: no binding
RTN1S (co-overexpressed in HEK293T) (from UniProt Q16799-3 1-208) | binds | 
RTN3L (co-overexpressed in HEK293T) (from UniProt O95197-1) |  | binding [4]: binds; binding [5]: binds; binding [6]: binds; binding [7]: no binding
RTN4L (co-overexpressed in HEK293T) (from UniProt Q9NQC3-1 1-1192) | binds | 
RTN4S (co-overexpressed in HEK293T) (from UniProt Q9NQC3-3 1-199) | binds | 
endogenous RTN3 (from UniProt O95197 1-1032) |  | binding [8]: binds
RTN2L (co-overexpressed in HEK293T) (protein, UniProt O75298-1 1-545) MGQVLPVFAHCKEAPSTASSTPDSTEGGNDDSDFRELHTAREFSEEDEEETTSQDWGTPRELTFSYIAFDGVVGSGGRRDSTARRPRPQGRSVSEPRDQHPQPSLGDSLESIPSLSQSPEPGRRGDPDTAPPSERPLEDLRLRLDHLGWVARGTGSGEDSSTSSSTPLEDEEPQEPNRLETGEAGEELDLRLRLAQPSSPEVLTPQLSPGSGTPQAGTPSPSRSRDSNSGPEEPLLEEEEKQWGPLEREPVRGQCLDSTDQLEFTVEPRLLGTAMEWLKTSLLLAVYKTVPILELSPPLWTAIGWVQRGPTPPTPVLRVLLKWAKSPRSSGVPSLSLGADMGSKVADLLYWKDTRTSGVVFTGLMVSLLCLLHFSIVSVAAHLALLLLCGTISLRVYRKVLQAVHRGDGANPFQAYLDVDLTLTREQTERLSHQITSRVVSAATQLRHFFLVEDLVDSLKLALLFYILTFVGAIFNGLTLLILGVIGLFTIPLLYRQHQAQIDQYVGLVTNQLSHIKAKIRAKIPGTGALASAAAAVSGSKAKAE | binds | 

Now from value to molecule, other results behind:

binding [1] | Molecule | other results
no binding | FAM134B (co-overexpressed in HEK293T) (from UniProt Q9H6L5 1-497) | 
no binding | FAM134C (co-overexpressed in HEK293T) (from UniProt Q86VR2 1-466) | 
binds | RTN1L (co-overexpressed in HEK293T) (from UniProt Q16799-1 1-776) | 
binds | RTN2S (co-overexpressed in HEK293T) (protein, UniProt O75298-3 1-205) MGSKVADLLYWKDTRTSGVVFTGLMVSLLCLLHFSIVSVAAHLALLLLCGTISLRVYRKVLQAVHRGDGANPFQAYLDVDLTLTREQTERLSHQITSRVVSAATQLRHFFLVEDLVDSLKLALLFYILTFVGAIFNGLTLLILGVIGLFTIPLLYRQHQAQIDQYVGLVTNQLSHIKAKIRAKIPGTGALASAAAAVSGSKAKAE | 
no binding | FAM134A (co-overexpressed in HEK293T) (protein, UniProt Q8NC44 1-543) MASGGGGGNTGAGGGPGMGLSLGLGLGLSLGMSEATSEAEEEAATAEAVGRLATTLWLRLRGWEAVLAAAQRLLVWEKPLHSLVTAAALNGLFWLLSSSSLRPFFLLSVSLLAYFLLDLWQPRFLPDVSASSPEEPHSDSEGAGSGARPHLLSVPELCRYLAESWLTFQIHLQELLQYKRQNPAQFCVRVCSGCAVLAVLGHYVPGIMISYIVLLSILLWPLVVYHELIQRMYTRLEPLLMQLDYSMKAEANALHHKHDKRKRQGKNAPPGGDEPLAETESESEAELAGFSPVVDVKKTALALAITDSELSDEEASILESGGFSVSRATTPQLTDVSEDLDQQSLPSEPEETLSRDLGEGEEGELAPPEDLLGRPQALSRQALDSEEEEEDVAAKETLLRLSSPLHFVNTHFNGAGSPPDGVKCSPGGPVETLSPETVSGGLTALPGTLSPPLCLVGSDPAPSPSILPPVPQDSPQPLPAPEEEEALTTEDFELLDQGELEQLNAELGLEPETPPKPPDAPPLGPDIHSLVQSDQEAQAVAEP | 
